No constants are given. Whether binding was seen depends on the method and setting. Binding seen in cells or lysates may run through a third protein. These calls come from enrichment with a bait or labelling near it, and not all partners need be listed.
B1: desmocollin-1 (DSC1) (protein, UniProt Q08554 135-894)
chain: RWAPIPASLMENSLGPFPQHVQQIQSDAAQNYTIFYSISGPGVDKEPFNLFYIEKDTGDIFCTRSIDREKYEQFALYGYATTADGYAPEYPLPLIIKIEDDNDNAPYFEHRVTIFTVPENCRSGTSVGKVTATDLDEPDTLHTRLKYKILQQIPDHPKHFSIHPDTGVITTTTPFLDREKCDTYQLIMEVRDMGGQPFGLFNTGTITISLEDENDNPPSFTETSYVTEVEENRIDVEILRMKVQDQDLPNTPHSKAVYKILQGNENGNFIISTDPNTNEGVLCVVKPLNYEVNRQVILQVGVINEAQFSKAASSQTPTMCTTTVTVKIIDSDEGPECHPPVKVIQSQDGFPAGQELLGYKALDPEISSGEGLRYQKLGDEDNWFEINQHTGDLRTLKVLDRESKFVKNNQYNISVVAVDAVGRSCTGTLVVHLDDYNDHAPQIDKEVTICQNNEDFAVLKPVDPDGPENGPPFQFFLDNSASKNWNIEEKDGKTAILRQRQNLDYNYYSVPIQIKDRHGLVATHMLTVRVCDCSTPSECRMKDKSTRDVRPNVILGRWAILAMVLGSVLLLCILFTCFCVTAKRTVKKCFPEDIAQQNLIVSNTEGPGEEVTEANIRLPMQTSNICDTSMSVGTVGGQGIKTQQSFEMVKGGYTLDSNKGGGHQTLESVKGVGQGDTGRYAYTDWQSFTQPRLGEKVYLCGQDEEHKHCEDYVCSYNYEGKGSLAGSVGCCSDRQEEEGLEFLDHLEPKFRTLAKTCIKK

The chains behind the UniProt entries cited, without tags or fusion partners. Residues count along the entry.
UniProt Q6YHK3, residues 22-1420: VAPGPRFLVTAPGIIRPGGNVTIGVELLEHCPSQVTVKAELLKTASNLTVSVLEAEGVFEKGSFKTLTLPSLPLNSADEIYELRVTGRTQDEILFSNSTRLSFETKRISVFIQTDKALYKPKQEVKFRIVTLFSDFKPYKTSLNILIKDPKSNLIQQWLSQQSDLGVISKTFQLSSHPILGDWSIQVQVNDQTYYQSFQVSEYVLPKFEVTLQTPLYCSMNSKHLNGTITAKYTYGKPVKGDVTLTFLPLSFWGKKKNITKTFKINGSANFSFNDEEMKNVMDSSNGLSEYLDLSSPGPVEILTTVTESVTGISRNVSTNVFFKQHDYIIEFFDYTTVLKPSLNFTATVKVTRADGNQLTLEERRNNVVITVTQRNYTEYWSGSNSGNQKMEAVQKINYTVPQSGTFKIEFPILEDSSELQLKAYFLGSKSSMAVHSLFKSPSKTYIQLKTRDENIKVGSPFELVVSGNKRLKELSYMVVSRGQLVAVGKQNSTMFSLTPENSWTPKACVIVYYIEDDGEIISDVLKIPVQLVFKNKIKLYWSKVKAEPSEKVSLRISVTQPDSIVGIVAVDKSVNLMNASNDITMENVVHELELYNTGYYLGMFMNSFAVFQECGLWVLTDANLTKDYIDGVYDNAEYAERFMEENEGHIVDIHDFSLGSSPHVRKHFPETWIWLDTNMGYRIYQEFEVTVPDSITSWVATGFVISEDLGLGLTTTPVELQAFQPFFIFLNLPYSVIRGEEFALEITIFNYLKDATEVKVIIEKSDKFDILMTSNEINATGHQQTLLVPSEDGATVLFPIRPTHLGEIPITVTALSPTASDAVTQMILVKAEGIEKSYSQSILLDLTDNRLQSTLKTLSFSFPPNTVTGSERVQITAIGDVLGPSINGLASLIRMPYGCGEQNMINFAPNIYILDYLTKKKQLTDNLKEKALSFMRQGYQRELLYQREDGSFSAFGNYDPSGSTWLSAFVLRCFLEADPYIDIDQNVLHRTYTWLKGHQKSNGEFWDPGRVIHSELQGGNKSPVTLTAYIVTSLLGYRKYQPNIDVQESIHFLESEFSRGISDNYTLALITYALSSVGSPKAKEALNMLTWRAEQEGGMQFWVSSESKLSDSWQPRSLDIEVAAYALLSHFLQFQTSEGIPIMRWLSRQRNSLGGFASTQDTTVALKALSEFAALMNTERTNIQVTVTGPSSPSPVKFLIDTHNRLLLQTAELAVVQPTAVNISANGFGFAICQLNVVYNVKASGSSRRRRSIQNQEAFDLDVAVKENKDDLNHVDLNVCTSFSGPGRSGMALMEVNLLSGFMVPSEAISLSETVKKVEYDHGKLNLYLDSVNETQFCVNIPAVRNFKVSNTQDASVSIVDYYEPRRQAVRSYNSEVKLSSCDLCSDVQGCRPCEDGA
UniProt Q02487, residues 136-901: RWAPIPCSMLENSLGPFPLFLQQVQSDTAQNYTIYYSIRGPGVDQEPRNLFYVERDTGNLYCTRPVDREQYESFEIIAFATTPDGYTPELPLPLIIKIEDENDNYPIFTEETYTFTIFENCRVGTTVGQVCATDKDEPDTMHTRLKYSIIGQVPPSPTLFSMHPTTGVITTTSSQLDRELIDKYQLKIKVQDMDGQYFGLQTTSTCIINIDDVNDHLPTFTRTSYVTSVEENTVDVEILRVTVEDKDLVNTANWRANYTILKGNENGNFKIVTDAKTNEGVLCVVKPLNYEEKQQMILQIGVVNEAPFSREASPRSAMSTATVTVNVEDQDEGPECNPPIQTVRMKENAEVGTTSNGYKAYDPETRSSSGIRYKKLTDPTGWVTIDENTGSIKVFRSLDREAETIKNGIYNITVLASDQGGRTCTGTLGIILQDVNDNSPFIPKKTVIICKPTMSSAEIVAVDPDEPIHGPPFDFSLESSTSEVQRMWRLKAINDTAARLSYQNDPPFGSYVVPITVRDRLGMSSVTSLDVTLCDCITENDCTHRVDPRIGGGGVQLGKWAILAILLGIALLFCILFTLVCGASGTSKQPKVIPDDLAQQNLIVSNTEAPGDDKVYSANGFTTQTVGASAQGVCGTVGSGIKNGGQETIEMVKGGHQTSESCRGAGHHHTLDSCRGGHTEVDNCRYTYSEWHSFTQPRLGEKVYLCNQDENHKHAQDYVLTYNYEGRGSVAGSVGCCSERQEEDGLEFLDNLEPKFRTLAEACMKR
UniProt Q02413, residues 50-1049: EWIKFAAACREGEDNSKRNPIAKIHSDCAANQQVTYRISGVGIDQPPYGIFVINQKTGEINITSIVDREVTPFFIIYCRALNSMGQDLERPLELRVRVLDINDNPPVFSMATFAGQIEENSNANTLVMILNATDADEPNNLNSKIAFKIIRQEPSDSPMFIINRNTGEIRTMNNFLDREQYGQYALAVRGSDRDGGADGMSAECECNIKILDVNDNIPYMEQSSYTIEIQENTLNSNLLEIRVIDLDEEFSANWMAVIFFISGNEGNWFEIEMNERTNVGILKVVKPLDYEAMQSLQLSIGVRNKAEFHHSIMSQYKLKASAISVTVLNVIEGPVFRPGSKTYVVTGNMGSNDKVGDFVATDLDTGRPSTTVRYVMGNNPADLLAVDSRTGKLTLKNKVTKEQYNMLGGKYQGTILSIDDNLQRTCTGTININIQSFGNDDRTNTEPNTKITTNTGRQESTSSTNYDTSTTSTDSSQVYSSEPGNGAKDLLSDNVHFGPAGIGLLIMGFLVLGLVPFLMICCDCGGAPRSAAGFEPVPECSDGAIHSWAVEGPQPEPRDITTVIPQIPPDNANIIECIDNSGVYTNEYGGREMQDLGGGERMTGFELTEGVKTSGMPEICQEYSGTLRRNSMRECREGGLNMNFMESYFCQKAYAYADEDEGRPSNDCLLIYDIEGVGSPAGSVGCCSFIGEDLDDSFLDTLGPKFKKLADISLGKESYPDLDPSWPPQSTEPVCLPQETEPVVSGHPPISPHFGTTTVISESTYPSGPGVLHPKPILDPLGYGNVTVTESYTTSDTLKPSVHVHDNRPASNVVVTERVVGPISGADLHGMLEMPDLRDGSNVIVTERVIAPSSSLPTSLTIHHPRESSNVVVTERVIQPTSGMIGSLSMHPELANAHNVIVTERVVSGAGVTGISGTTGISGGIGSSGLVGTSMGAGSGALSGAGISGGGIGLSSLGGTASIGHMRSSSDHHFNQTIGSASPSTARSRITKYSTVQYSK
UniProt Q14126, residues 50-1118: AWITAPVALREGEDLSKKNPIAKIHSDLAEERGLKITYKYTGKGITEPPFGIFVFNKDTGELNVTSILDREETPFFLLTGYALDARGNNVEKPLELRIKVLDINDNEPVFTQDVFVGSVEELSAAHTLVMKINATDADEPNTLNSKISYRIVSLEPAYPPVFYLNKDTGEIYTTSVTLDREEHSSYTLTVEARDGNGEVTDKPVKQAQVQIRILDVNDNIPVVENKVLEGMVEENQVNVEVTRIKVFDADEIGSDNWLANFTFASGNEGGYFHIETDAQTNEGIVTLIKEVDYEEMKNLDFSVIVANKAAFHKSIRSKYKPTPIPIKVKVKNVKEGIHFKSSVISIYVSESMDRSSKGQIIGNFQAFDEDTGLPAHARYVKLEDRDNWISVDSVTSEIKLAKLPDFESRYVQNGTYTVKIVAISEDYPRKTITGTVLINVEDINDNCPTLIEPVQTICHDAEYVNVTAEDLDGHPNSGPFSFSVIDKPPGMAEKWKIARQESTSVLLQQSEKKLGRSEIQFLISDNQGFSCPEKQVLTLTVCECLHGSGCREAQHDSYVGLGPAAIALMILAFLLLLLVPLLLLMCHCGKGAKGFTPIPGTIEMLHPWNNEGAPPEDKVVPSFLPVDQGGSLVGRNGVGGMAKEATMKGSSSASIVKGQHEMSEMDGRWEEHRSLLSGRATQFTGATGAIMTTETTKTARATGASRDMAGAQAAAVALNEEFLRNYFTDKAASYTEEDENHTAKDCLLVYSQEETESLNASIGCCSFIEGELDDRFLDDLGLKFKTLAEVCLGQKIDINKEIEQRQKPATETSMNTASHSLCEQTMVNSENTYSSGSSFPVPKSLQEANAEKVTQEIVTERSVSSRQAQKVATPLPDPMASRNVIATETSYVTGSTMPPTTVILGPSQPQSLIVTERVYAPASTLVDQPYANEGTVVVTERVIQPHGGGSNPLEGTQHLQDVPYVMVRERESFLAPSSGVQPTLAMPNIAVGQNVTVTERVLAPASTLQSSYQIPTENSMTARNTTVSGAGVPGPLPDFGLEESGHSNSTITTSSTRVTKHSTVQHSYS

Biological target: N-terminally HA-tagged CD109 (cluster of differentiation 109) (UniProt Q6YHK3)
Experiment: affinity purification with mass spectrometry; N-terminally HA-tagged CD109 in HEK293T; membrane fraction isolated by snap freezing, lysed, precipitated with anti-HA-tag antibody; co-precipitated proteins identified by LC-MS protein fingerprinting

Molecule	binding
desmocollin-2 (DSC2) (from UniProt Q02487 136-901)	binds
desmoglein-1 (DSG1) (from UniProt Q02413 50-1049)	binds
desmoglein-2 (DSG2), endogenous (from UniProt Q14126 50-1118)	binds
protocadherin FAT1 (from UniProt Q14517 22-4588)	binds
B1	binds
